Source: patent publication US20240327840
Results from cells or extracts need not show a direct contact. For part of these data: A negative result means that nothing was seen under these conditions. Tags and fusion partners may be left off the protein sequences shown. For at least one entry, the source does not settle the construct or the ends of the probe. The comparison behind a weaker result is the experiment's own reference, which may not be listed here.

Tests used:
Assay in all cases: pull-down
[1] = target: T1, QKI-5 (Quaking isoform 5) (Homo sapiens) (UniProt Q96PU8); details: protein in an extract, label: 5'-C6 biotin
T1 sequence: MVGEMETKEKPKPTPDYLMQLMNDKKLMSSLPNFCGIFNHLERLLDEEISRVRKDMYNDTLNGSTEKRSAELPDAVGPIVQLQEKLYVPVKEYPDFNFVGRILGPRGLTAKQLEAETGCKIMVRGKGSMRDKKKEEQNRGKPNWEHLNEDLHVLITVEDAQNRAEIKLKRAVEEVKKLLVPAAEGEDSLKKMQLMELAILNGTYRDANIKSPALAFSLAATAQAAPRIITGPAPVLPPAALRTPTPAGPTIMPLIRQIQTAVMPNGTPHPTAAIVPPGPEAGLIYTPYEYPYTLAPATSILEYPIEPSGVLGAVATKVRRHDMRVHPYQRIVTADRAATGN

[2] = target: T2, QKI-6 (Quaking isoform 6) (Homo sapiens) (UniProt Q96PU8); details: 2'-OMe all, protein in an extract, label: 5'-C6 biotin
T2 sequence: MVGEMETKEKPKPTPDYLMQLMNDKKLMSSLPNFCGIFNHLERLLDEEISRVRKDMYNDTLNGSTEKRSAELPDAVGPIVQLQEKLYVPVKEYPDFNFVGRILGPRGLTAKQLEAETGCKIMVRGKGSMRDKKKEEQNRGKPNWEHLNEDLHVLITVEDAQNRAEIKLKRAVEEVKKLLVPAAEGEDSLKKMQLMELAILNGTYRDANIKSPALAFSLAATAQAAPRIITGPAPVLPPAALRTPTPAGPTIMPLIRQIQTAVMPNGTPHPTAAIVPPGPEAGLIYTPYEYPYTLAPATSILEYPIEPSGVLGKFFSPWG

[3] = target: T3, QKI-7 (Quaking isoform 7) (Homo sapiens) (UniProt Q96PU8); details: 2'-OMe all, protein in an extract, label: 5'-C6 biotin
T3 sequence: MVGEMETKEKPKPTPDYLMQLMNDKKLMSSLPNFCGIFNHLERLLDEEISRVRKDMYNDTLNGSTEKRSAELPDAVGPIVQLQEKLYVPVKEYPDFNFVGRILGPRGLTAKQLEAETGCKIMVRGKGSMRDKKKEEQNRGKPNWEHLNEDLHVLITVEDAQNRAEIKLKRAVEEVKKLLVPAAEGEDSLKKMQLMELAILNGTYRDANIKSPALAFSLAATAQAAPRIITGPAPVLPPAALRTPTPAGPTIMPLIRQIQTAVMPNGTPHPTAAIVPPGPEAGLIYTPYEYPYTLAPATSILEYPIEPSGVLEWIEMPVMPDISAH

[4] = somewhat preferential in cytoplasmic fraction

ACUAACACUAACACUAACACUAAC [(ACUAAC)4]: binds ([1]; 2'-OMe all, rank 77>76>75>74).
“ACTAACTTTACTAACTTTACTAACTTTACTAAC [(ACUAAC)4 with LNA TTT spacers]”: no binding ([1]; 2'-OMe in ACUAAC, LNA T spacers, LNA spacer completely blocks binding, variant of (ACUAAC)4).
“ACUAACACUAACACUAACACUAACACUAACACUAAC [(ACUAAC)6]”: binds ([1]; 2'-OMe all, strongest of the series 77>76>75>74).
“GCAAUCCGCAAUCCGCAAUCC [scr scrambled dcRNA]”: no binding ([1]; 2'-OMe all, little to no binding).
“GCUUUACUAACACAGAUACUAACAUCG [SEQ63 dual core dcRNA, 5 nt spacer]”: binds [2, 4]; binds [3, 4]; binds ([1]; 2'-OMe all, streptavidin pulldown and western blot, 50 mM KCl, 5 mM MgCl2, 4C, nuclear and cytoplasmic extract).
“ACUAACUUUACUAACUUUACUAACUUUACUAAC [(ACUAAC)4 with RNA UUU spacers]”: binds ([1]; 2'-OMe all, RNA spacer neither hampers nor improves interaction, variant of (ACUAAC)4).
ACUAACACUAACACUAAC [(ACUAAC)3]: binds ([1]; 2'-OMe all, rank 77>76>75>74).
“GCUUUACGAACACAGAUACGAACAUCG [SEQ62 mutated control dcRNA]”: no binding ([1]; 2'-OMe all, little to no binding, variant of SEQ63 dual core dcRNA, 5 nt spacer).
“ACUAACACUAACACUAACACUAAC [(ACUAAC)4 with TEG spacer 9]”: binds ([1]; 2'-OMe in ACUAAC, triethylene glycol spacer 9 between ACUAAC motifs, TEG spacer neither hampers nor improves interaction, variant of (ACUAAC)4).
ACUAACACUAAC [(ACUAAC)2]: binds more weakly ([2]; little ability to interact); binds more weakly ([3]; little ability to interact); binds more weakly ([1]; 2'-OMe all, little ability to interact, rank 77>76>75>74).
“ACTAACTTTACTAACTTTACTAACTTTACTAAC [(ACUAAC)4 with DNA TTT spacers]”: binds ([1]; 2'-OMe in ACUAAC, dT spacers, DNA spacer neither hampers nor improves interaction, variant of (ACUAAC)4).
